In the M2OR odorant receptor database:
The list shows a part of the results, in another mix than the full data. Calls are pooled over several reports, among them a noisy single-well screen. This is one part of the list.

Legend:
Conditions in all cases: stereoisomer not certain
OR8H3 = system: T1, OR8H3
T1 sequence (whole entry): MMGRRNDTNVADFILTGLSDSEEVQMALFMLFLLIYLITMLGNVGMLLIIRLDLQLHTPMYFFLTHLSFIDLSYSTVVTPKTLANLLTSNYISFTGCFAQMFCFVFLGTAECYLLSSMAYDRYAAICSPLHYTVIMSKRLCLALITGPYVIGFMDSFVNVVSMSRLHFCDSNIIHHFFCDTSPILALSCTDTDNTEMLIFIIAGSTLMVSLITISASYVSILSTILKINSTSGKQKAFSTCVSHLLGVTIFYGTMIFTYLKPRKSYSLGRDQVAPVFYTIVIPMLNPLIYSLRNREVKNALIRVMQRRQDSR
Outline: (§1)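 Values were gathered from published papers (main text and supplementary material), with extra details requested from the original authors when needed, and checked for typos and inconsistencies. Each receptor–molecule pair is called responsive (active) if the original authors judged the measured signal statistically different from baseline, and non-responsive (inactive) otherwise. Assay methods varied by source, often transient mammalian cell-line luciferase assays. Recorded details include cell line, G-protein, co-transfected protein and tags.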

OR8I2 = system: T2, OR8I2
T2 sequence (whole entry): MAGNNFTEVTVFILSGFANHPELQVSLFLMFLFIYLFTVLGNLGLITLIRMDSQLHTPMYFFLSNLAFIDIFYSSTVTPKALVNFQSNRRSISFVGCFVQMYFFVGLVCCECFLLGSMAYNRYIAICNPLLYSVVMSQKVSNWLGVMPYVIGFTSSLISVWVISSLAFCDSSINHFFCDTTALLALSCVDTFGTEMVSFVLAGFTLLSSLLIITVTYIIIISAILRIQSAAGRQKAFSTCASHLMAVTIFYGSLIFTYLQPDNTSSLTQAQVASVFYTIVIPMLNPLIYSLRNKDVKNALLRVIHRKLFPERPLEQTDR
Outline: as §1

OR8J1 = system: T3, OR8J1
T3 sequence (whole entry): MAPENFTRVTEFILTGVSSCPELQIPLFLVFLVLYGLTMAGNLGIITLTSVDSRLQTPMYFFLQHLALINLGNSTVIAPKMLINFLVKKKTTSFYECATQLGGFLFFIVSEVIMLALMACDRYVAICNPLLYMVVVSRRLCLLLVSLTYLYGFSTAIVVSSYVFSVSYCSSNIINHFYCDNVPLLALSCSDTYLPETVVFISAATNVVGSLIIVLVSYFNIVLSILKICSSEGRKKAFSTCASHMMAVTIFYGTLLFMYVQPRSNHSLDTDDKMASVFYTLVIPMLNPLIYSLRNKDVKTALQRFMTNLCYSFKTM
Outline: as §1

OR8J3 (Homo sapiens) = biological target: T4, OR8J3 (Homo sapiens) (UniProt Q8NGG0)
T4 sequence (whole entry): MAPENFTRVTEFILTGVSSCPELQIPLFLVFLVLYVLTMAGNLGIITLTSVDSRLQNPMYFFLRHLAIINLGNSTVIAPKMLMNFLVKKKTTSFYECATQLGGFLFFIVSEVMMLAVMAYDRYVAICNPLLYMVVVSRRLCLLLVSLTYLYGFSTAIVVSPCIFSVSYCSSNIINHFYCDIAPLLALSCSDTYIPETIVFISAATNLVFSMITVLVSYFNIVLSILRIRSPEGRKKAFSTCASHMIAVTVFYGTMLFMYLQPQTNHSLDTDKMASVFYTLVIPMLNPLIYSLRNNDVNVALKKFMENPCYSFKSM
Outline: as §1

OR8K1 (Homo sapiens) = biological target: T5, OR8K1 (Homo sapiens) (UniProt Q8NGG5)
T5 sequence (whole entry): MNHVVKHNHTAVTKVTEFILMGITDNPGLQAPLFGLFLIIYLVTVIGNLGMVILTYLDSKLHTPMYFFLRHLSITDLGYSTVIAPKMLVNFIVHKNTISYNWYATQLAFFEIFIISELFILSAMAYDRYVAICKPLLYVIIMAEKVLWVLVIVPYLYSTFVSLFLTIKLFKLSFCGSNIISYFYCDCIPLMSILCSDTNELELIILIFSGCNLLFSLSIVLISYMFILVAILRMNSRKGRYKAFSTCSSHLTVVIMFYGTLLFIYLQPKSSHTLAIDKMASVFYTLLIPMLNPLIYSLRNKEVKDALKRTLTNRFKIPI
Outline: as §1

OR8K3 = system: T6, OR8K3
T6 sequence (whole entry): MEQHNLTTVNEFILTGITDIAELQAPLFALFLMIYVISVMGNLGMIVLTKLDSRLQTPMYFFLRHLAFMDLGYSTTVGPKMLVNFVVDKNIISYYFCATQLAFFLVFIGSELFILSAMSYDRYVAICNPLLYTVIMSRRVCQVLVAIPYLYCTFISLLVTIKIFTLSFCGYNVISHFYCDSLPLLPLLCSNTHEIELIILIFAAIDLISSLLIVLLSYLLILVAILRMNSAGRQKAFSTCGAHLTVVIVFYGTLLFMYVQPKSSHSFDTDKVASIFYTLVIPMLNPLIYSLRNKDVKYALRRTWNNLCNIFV
Outline: as §1

OR8H3 (Homo sapiens) = OR8H3 (Homo sapiens) (UniProt Q8N146)
Outline: as §1

OR8I2 (Homo sapiens) = OR8I2 (Homo sapiens) (UniProt Q8N0Y5)
Outline: as §1

OR8J1 (Homo sapiens) = OR8J1 (Homo sapiens) (UniProt Q8NGP2)
Outline: as §1

OR8K3 (Homo sapiens) = OR8K3 (Homo sapiens) (UniProt Q8NH51)
Outline: as §1

Measured: odorant receptor agonist call

COc1cc(C)ccc1O
inactive: OR8H3 | OR8I2 | OR8J1 | OR8J3 (Homo sapiens) | OR8K1 (Homo sapiens) | OR8K3

CCCC(=O)O
inactive: OR8H3 | OR8I2 | OR8J1 | OR8J3 (Homo sapiens) | OR8K1 (Homo sapiens) | OR8K3

O=C1CCCCCCCCCCCCCCO1
inactive: OR8H3 | OR8I2 | OR8J1 | OR8J3 (Homo sapiens) | OR8K1 (Homo sapiens) | OR8K3

CC1=CCC(C(C)(C)O)CC1 (configuration not stated)
inactive: OR8H3 | OR8I2 | OR8J1 | OR8J3 (Homo sapiens) | OR8K1 (Homo sapiens) | OR8K3

CCCCCCCCCCC=O
inactive: OR8H3 | OR8I2 | OR8J1 | OR8J3 (Homo sapiens) | OR8K1 (Homo sapiens) | OR8K3

CCCCCCCOC(C)=O
inactive: OR8H3 | OR8I2 | OR8J1 | OR8J3 (Homo sapiens) | OR8K1 (Homo sapiens) | OR8K3

CC(C)=CCCC(C)=CC=O
inactive: OR8H3 | OR8I2 | OR8J1 | OR8J3 (Homo sapiens) | OR8K1 (Homo sapiens) | OR8K3

CCCCCCCCOC(C)=O
inactive: OR8H3 | OR8I2 | OR8J1 | OR8J3 (Homo sapiens) | OR8K1 (Homo sapiens) | OR8K3

CCCCCC(C)=O
inactive: OR8H3 | OR8I2 | OR8J1 | OR8J3 (Homo sapiens) | OR8K1 (Homo sapiens) | OR8K3

CC(C)C(=O)O
inactive: OR8H3 | OR8I2 | OR8J1 | OR8J3 (Homo sapiens) | OR8K1 (Homo sapiens) | OR8K3

COc1cc(C=O)ccc1O
inactive: OR8H3 | OR8I2 | OR8J1 | OR8J3 (Homo sapiens) | OR8K1 (Homo sapiens) | OR8K3

CCCCCC(=O)O
inactive: OR8H3 | OR8I2 | OR8J1 | OR8J3 (Homo sapiens) | OR8K1 (Homo sapiens) | OR8K3

COc1ccccc1O
inactive: OR8H3 | OR8I2 | OR8J1 | OR8J3 (Homo sapiens) | OR8K1 (Homo sapiens) | OR8K3

COC(=O)c1ccccc1
inactive: OR8H3 | OR8I2 | OR8J1 | OR8J3 (Homo sapiens) | OR8K1 (Homo sapiens) | OR8K3

CCCCCCOC(=O)CCC
inactive: OR8H3 | OR8I2 | OR8J1 | OR8J3 (Homo sapiens) | OR8K1 (Homo sapiens) | OR8K3

CC1COCc2cc3c(cc21)C(C)(C)C(C)C3(C)C (configuration not stated)
active: OR8I2 | OR8J1 | OR8K1 (Homo sapiens)
inactive: OR8H3 | OR8J3 (Homo sapiens) | OR8K3

CC(=O)C(C)=O
inactive: OR8H3 | OR8I2 | OR8J1 | OR8J3 (Homo sapiens) | OR8K1 (Homo sapiens) | OR8K3

CC=Cc1ccc(O)c(OC)c1
inactive: OR8H3 | OR8J1 | OR8J3 (Homo sapiens) | OR8K1 (Homo sapiens) | OR8K3
active: OR8I2

c1cnccn1
inactive: OR8H3 | OR8I2 | OR8J1 | OR8J3 (Homo sapiens) | OR8K1 (Homo sapiens) | OR8K3

CC(=O)OC(C)(C)C1CC=C(C)CC1 (configuration not stated)
inactive: OR8H3 | OR8I2 | OR8J1 | OR8J3 (Homo sapiens) | OR8K1 (Homo sapiens) | OR8K3

CC12C=CCC1C1CCC3CC(=O)CCC3(C)C1CC2 (configuration not stated)
active: OR8H3 | OR8I2 | OR8K3
not listed: OR8J3 (Homo sapiens)
inactive: all other assays above

C=CCSCC=C
inactive: OR8H3 | OR8I2 | OR8J1 | OR8J3 (Homo sapiens) | OR8K1 (Homo sapiens) | OR8K3

CCCCCOC(C)=O
inactive: OR8H3 | OR8I2 | OR8J1 | OR8J3 (Homo sapiens) | OR8K1 (Homo sapiens) | OR8K3

CC(=O)c1ccccc1
inactive: OR8H3 | OR8I2 | OR8J1 | OR8J3 (Homo sapiens) | OR8K1 (Homo sapiens) | OR8K3

CC1=NC(C)SC1C (configuration not stated)
inactive: OR8H3 | OR8I2 | OR8J1 | OR8J3 (Homo sapiens) | OR8K1 (Homo sapiens) | OR8K3

CCCCCCCCCC=O
inactive: OR8H3 | OR8I2 | OR8J1 | OR8J3 (Homo sapiens) | OR8K1 (Homo sapiens) | OR8K3

O=C1CCCCC1
inactive: OR8H3 | OR8I2 | OR8J1 | OR8J3 (Homo sapiens) | OR8K1 (Homo sapiens) | OR8K3

CC(=O)OC1CC2CCC1(C)C2(C)C (configuration not stated)
inactive: OR8H3 | OR8I2 | OR8J1 | OR8J3 (Homo sapiens) | OR8K1 (Homo sapiens) | OR8K3

CC(C)C=O
inactive: OR8H3 | OR8I2 | OR8J1 | OR8J3 (Homo sapiens) | OR8K1 (Homo sapiens) | OR8K3

CC(C)CCC(=O)O
inactive: OR8H3 | OR8I2 | OR8J1 | OR8J3 (Homo sapiens) | OR8K1 (Homo sapiens) | OR8K3

CC(=O)OCC=C(C)CCC=C(C)C
inactive: OR8H3 | OR8I2 | OR8J1 | OR8J3 (Homo sapiens) | OR8K1 (Homo sapiens) | OR8K3

CCCCCCCC=CC=O
inactive: OR8H3 | OR8I2 | OR8J3 (Homo sapiens) | OR8K1 (Homo sapiens) | OR8K3
active: OR8J1

c1ccc(Oc2ccccc2)cc1
inactive: OR8H3 | OR8I2 | OR8J1 | OR8J3 (Homo sapiens) | OR8K1 (Homo sapiens) | OR8K3

O=CCc1ccccc1
inactive: OR8H3 | OR8I2 | OR8J1 | OR8J3 (Homo sapiens) | OR8K1 (Homo sapiens) | OR8K3

CCCCCCCC=O
inactive: OR8H3 | OR8I2 | OR8J1 | OR8J3 (Homo sapiens) | OR8K1 (Homo sapiens) | OR8K3

CC(C)CC(=O)O
inactive: OR8H3 | OR8I2 | OR8J1 | OR8J3 (Homo sapiens) | OR8K1 (Homo sapiens) | OR8K3

CC1CCC(C(C)C)C(O)C1 (configuration not stated)
inactive: OR8H3 | OR8I2 | OR8J3 (Homo sapiens) | OR8K1 (Homo sapiens)
active: OR8J1 | OR8K3

CCC1(O)C2(C)CCC(C2)C1(C)C (configuration not stated)
inactive: OR8H3 | OR8I2 | OR8J1 | OR8J3 (Homo sapiens) | OR8K1 (Homo sapiens) | OR8K3

C=CC(C)(O)CCC=C(C)C (configuration not stated)
inactive: OR8H3 | OR8I2 | OR8J1 | OR8J3 (Homo sapiens) | OR8K1 (Homo sapiens) | OR8K3

COC(=O)c1ccccc1O
inactive: OR8H3 | OR8I2 | OR8J1 | OR8J3 (Homo sapiens) | OR8K1 (Homo sapiens) | OR8K3

CC12CCC(C1)C(C)(C)C2=O (configuration not stated)
inactive: OR8H3 | OR8I2 | OR8J1 | OR8J3 (Homo sapiens) | OR8K1 (Homo sapiens) | OR8K3

C=CCc1ccc(OC)c(OC)c1
inactive: OR8H3 | OR8I2 | OR8J1 | OR8J3 (Homo sapiens) | OR8K1 (Homo sapiens) | OR8K3

CC12CCC(CC1)C(C)(C)O2
inactive: OR8H3 | OR8I2 | OR8J1 | OR8J3 (Homo sapiens) | OR8K1 (Homo sapiens) | OR8K3

CCC=CCCO
inactive: OR8H3 | OR8I2 | OR8J1 | OR8J3 (Homo sapiens) | OR8K1 (Homo sapiens) | OR8K3

O=C1CCCCCCCCCCCC(=O)OCCO1
inactive: OR8H3 | OR8I2 | OR8J1 | OR8J3 (Homo sapiens) | OR8K1 (Homo sapiens) | OR8K3

CC12C=CCC1C1CCC3=CC(=O)CCC3(C)C1CC2 (configuration not stated)
inactive: OR8H3 | OR8I2 | OR8J1 | OR8J3 (Homo sapiens) | OR8K1 (Homo sapiens) | OR8K3

CCCCO
inactive: OR8H3 | OR8I2 | OR8J1 | OR8J3 (Homo sapiens) | OR8K1 (Homo sapiens) | OR8K3

C=CCc1ccc(OC(C)=O)c(OC)c1
inactive: OR8H3 | OR8I2 | OR8J1 | OR8J3 (Homo sapiens) | OR8K1 (Homo sapiens) | OR8K3

CC(C)(C)c1ccc(CCC=O)cc1
inactive: OR8H3 | OR8I2 | OR8J1 | OR8J3 (Homo sapiens) | OR8K1 (Homo sapiens) | OR8K3
